PubChem BioAssay AID1224826 | NIAID – 2016
Shown is an unselected part of about 17,000 reagents. Over the whole deposit, about 1,110 (6.6%) are marked active. 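Active means lowered or raised reporter signal; replicate intensities are raw and not normalised per plate.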 Reagents against one gene are numbered here.

- Screen: 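Knock-downs that raise or lower Tnf reporter signal after endotoxin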 (primary screen)
- System: RAW264.7 G9 macrophages from mouse bearing reporters for p65 (GFP) and the Tnf promoter (mCherry)
- Reagents: siRNA pool against mouse genes, 100 nM
- Duration: 16 h of LPS stimulation, after 2 days of siRNA transfection
- Conditions: bacterial lipopolysaccharide (Salmonella minnesota R595), 10 ng/ml
- Read-out: 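Nuclear mCherry signal of the Tnf promoter reporter measured by imaging after background removal, scaled to each plate median and turned into robust z-scores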
- Direction: Tnf reporter robust z-score: higher = stronger Tnf promoter reporter signal after LPS; Tnf reporter intensity: higher = stronger Tnf promoter reporter signal
- Call rule: 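a well counts as active at a score of -1.3 or below (Tlr4 knock-down control median) or above 3 (raised signal); controls and wells holding fewer than 50 cells are excluded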
- Calls: active = Tnf reporter clearly lowered or raised; inactive = no clear change in Tnf reporter

| gene knocked down | pool no. | Tnf reporter robust z-score | fewer than 50 cells in well | Tnf reporter intensity, replicate 1 | Tnf reporter intensity, replicate 2 | activity call |
| --- | --- | --- | --- | --- | --- | --- |
| Gcm1 | 1 | 0.21 | enough cells in well | 266 | 259 | inactive |
| Spata19 | 1 | -0.42 | enough cells in well | 135 | 71.4 | inactive |
| Itgbl1 | 1 | -0.58 | enough cells in well | 213 | 106 | inactive |
| Mbd3l1 | 1 | -0.24 | enough cells in well | 245 | 187 | inactive |
| Pip5k1c | 1 | 0.16 | enough cells in well | 246 | 215 | inactive |
| Irgm2 | 1 | -0.43 | enough cells in well | 208 | 130 | inactive |
| Fktn | 1 | 0.18 | enough cells in well | 227 | 262 | inactive |
| Dhx15 | 1 | – | fewer than 50 cells per well; well left out of calls | 80.2 | 20.6 | inactive |
| Aasdh | 1 | 0.26 | enough cells in well | 195 | 157 | inactive |
| Pfkm | 1 | 0.9 | enough cells in well | 248 | 167 | inactive |
| Krtap19-4 | 1 | 1.13 | enough cells in well | 208 | 220 | inactive |
| Aatf | 1 | 2.03 | enough cells in well | 293 | 235 | inactive |
| Diras1 | 1 | 0.72 | enough cells in well | 302 | 242 | inactive |
| Rbbp4 | 1 | -0.22 | enough cells in well | 326 | 163 | inactive |
| Dap3 | 1 | 2.57 | enough cells in well | 430 | 427 | inactive |
| Gchfr | 1 | – | fewer than 50 cells per well; well left out of calls | 191 | 37 | inactive |
| Prss50 | 1 | – | fewer than 50 cells per well; well left out of calls | 78.3 | 57.6 | inactive |
| Txnip | 1 | – | fewer than 50 cells per well; well left out of calls | 142 | 61.5 | inactive |
| Rpa2 | 1 | 1.89 | enough cells in well | 226 | 193 | inactive |

10 successive reagents already listed:
| gene knocked down | pool no. | Tnf reporter robust z-score | fewer than 50 cells in well | Tnf reporter intensity, replicate 1 | Tnf reporter intensity, replicate 2 | activity call |
| --- | --- | --- | --- | --- | --- | --- |
| Fktn | 1 | 0.18 | enough cells in well | 227 | 262 | inactive |
| Dhx15 | 1 | – | fewer than 50 cells per well; well left out of calls | 80.2 | 20.6 | inactive |
| Aasdh | 1 | 0.26 | enough cells in well | 195 | 157 | inactive |
| Pfkm | 1 | 0.9 | enough cells in well | 248 | 167 | inactive |
| Krtap19-4 | 1 | 1.13 | enough cells in well | 208 | 220 | inactive |
| Aatf | 1 | 2.03 | enough cells in well | 293 | 235 | inactive |
| Diras1 | 1 | 0.72 | enough cells in well | 302 | 242 | inactive |
| Rbbp4 | 1 | -0.22 | enough cells in well | 326 | 163 | inactive |
| Dap3 | 1 | 2.57 | enough cells in well | 430 | 427 | inactive |
| Gchfr | 1 | – | fewer than 50 cells per well; well left out of calls | 191 | 37 | inactive |

The listing continues:
| gene knocked down | pool no. | Tnf reporter robust z-score | fewer than 50 cells in well | Tnf reporter intensity, replicate 1 | Tnf reporter intensity, replicate 2 | activity call |
| --- | --- | --- | --- | --- | --- | --- |
| 4932414J04Rik | 1 | – | fewer than 50 cells per well; well left out of calls | 395 | 105 | inactive |
| Cpeb3 | 1 | 1.08 | enough cells in well | 246 | 247 | inactive |
| Gyg1 | 1 | 0.34 | enough cells in well | 240 | 205 | inactive |
| Atf1 | 1 | 1 | enough cells in well | 176 | 242 | inactive |
| Ncstn | 1 | 0.22 | enough cells in well | 178 | 150 | inactive |
| Cbfb | 1 | 0.35 | enough cells in well | 194 | 310 | inactive |
| 2810025M15Rik | 1 | 0.75 | enough cells in well | 294 | 93.7 | inactive |
| Or10j5 | 1 | 1.47 | enough cells in well | 263 | 186 | inactive |
| Tbc1d16 | 1 | -0.36 | enough cells in well | 196 | 165 | inactive |
| Rps28 | 1 | – | fewer than 50 cells per well; well left out of calls | 83.7 | 56.7 | inactive |
| Clmp | 1 | 0.82 | enough cells in well | 262 | 207 | inactive |
| Golph3 | 1 | 1.16 | enough cells in well | 330 | 237 | inactive |
| St3gal1 | 1 | -0.39 | enough cells in well | 243 | 186 | inactive |
| Nme8 | 1 | – | fewer than 50 cells per well; well left out of calls | 155 | 87.7 | inactive |
| Pnma3 | 1 | 0.94 | enough cells in well | 207 | 134 | inactive |
| Nme3 | 1 | – | fewer than 50 cells per well; well left out of calls | 181 | 157 | inactive |
| Zfp28 | 1 | 3.03 | enough cells in well | 67.7 | 263 | active |
| Zfp28 | 2 | – | fewer than 50 cells per well; well left out of calls | 159 | 46.5 | inactive |
| Hnrnpa3 | 1 | 2.85 | enough cells in well | 395 | 167 | inactive |
| Atf5 | 1 | – | fewer than 50 cells per well; well left out of calls | 52.3 | 86.8 | inactive |
| Psmb6 | 1 | 2.11 | enough cells in well | 410 | 338 | inactive |
| A630031M04Rik | 1 | 2.28 | enough cells in well | 273 | 303 | inactive |
| Hsp90aa1 | 1 | 1.11 | enough cells in well | 309 | 274 | inactive |
| Rras | 1 | 0.08 | enough cells in well | 365 | 179 | inactive |
| Bcap31 | 1 | – | fewer than 50 cells per well; well left out of calls | 31.9 | 121 | inactive |
| Exosc6 | 1 | -2.01 | enough cells in well | 82.7 | 57.1 | active |
| Nat8f2 | 1 | 0.87 | enough cells in well | 204 | 240 | inactive |
| Magi1 | 1 | 2.68 | enough cells in well | 257 | 335 | inactive |
| Zdhhc4 | 1 | -0.44 | enough cells in well | 105 | 78.3 | inactive |
| Or6c208 | 1 | – | fewer than 50 cells per well; well left out of calls | 34.7 | 61.2 | inactive |
| Agpat2 | 1 | 0.1 | enough cells in well | 170 | 179 | inactive |
| Bzw2 | 1 | 1.34 | enough cells in well | 0 | 240 | inactive |
| Igfbpl1 | 1 | -0.55 | enough cells in well | 164 | 84.7 | inactive |
| Hnf4g | 1 | -0.64 | enough cells in well | 153 | 178 | inactive |
| Zrsr2-ps1 | 1 | – | fewer than 50 cells per well; well left out of calls | 87.4 | 37.8 | inactive |
| Kpna2 | 1 | 1 | enough cells in well | 318 | 203 | inactive |
| Or4c12b | 1 | -0.38 | enough cells in well | 191 | 81.8 | inactive |
| Zcchc8 | 1 | 1.1 | enough cells in well | 179 | 161 | inactive |
| Nup210 | 1 | -1.75 | enough cells in well | 84.3 | 65.9 | active |
